Results published in the supplement of paper PMC12067093, “Discovery and optimisation of a covalent ligand for TRIM25 and its application to targeted protein ubiquitination” (Chemical Science, 2025).
Some of the results follow.

By UniProt entry, the sequences of proteins in these tests, tags left out. Where a name states a change or a piece, a line headed by the entry shows the natural chain unless it says otherwise.
UniProt Q14192: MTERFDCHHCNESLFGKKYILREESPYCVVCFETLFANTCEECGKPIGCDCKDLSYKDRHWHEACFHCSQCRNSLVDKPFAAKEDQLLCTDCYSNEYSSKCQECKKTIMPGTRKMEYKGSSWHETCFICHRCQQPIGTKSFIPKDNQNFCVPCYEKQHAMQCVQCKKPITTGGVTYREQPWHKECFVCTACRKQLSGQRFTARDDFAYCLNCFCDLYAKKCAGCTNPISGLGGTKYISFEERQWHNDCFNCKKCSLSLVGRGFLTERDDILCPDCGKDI
UniProt O75369, whole entry, looked up: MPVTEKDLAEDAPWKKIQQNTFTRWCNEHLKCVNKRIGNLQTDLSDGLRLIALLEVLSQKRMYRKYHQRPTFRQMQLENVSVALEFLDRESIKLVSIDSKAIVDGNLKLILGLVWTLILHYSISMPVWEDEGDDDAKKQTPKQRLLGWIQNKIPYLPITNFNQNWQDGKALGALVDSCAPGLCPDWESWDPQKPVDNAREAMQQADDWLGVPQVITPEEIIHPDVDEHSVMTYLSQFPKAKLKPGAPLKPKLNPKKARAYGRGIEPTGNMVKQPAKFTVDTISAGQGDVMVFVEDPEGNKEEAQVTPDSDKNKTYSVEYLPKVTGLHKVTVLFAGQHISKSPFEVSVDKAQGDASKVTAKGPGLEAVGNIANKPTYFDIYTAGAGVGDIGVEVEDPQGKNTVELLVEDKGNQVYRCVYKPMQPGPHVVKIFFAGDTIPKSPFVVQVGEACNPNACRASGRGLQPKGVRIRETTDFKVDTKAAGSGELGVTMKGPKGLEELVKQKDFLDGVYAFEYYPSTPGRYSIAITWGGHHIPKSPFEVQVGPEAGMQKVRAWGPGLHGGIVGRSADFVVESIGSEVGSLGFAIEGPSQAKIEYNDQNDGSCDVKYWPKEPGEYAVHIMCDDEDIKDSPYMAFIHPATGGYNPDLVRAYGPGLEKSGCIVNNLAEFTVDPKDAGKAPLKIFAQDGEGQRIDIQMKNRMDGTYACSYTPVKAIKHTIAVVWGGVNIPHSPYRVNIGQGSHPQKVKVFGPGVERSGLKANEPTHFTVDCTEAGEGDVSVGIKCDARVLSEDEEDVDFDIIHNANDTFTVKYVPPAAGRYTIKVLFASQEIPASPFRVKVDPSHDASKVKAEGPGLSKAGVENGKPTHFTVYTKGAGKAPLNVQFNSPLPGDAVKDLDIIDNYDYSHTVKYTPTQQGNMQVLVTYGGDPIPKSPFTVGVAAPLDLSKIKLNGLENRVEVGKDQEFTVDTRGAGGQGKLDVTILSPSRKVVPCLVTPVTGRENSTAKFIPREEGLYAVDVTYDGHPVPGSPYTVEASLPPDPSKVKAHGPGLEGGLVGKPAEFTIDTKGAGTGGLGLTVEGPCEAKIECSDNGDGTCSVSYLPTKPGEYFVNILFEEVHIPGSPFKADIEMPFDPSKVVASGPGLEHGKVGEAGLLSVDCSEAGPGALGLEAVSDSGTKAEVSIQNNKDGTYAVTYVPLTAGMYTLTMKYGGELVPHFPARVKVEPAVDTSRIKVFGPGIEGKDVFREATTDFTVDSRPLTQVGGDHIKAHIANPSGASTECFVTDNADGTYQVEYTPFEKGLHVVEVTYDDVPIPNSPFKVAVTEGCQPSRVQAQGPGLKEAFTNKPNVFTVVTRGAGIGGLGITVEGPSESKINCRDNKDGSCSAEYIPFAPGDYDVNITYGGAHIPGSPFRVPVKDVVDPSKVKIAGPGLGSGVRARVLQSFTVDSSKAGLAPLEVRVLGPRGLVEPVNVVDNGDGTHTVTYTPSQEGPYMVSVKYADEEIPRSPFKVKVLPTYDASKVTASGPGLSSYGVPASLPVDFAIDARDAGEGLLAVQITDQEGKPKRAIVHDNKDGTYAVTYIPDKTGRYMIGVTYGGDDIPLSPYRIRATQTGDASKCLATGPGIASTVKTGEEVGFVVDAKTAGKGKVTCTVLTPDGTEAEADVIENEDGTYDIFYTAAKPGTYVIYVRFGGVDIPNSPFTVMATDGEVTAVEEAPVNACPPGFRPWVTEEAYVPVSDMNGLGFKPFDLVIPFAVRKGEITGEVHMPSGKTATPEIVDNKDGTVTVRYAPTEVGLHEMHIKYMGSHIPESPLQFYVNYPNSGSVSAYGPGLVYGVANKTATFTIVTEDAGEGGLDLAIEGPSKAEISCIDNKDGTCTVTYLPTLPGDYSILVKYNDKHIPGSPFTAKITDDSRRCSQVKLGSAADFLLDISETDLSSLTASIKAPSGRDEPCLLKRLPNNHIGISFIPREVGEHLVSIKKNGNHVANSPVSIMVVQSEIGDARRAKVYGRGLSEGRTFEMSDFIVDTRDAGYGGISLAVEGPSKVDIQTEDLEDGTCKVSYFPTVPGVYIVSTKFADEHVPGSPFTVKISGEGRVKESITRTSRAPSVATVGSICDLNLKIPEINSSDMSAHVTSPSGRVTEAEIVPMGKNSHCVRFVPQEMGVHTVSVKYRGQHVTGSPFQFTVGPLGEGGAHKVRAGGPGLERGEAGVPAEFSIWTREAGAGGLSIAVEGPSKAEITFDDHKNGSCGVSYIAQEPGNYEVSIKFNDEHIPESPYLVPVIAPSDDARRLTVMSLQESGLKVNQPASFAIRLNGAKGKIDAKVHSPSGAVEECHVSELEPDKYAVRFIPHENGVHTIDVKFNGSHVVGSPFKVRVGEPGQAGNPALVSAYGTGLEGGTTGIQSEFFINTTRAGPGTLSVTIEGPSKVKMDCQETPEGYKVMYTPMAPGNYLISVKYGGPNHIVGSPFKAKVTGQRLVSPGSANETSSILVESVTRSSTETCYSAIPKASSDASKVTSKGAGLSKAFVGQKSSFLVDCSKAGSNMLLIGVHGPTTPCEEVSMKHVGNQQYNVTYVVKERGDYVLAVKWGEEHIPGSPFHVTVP
UniProt P04066: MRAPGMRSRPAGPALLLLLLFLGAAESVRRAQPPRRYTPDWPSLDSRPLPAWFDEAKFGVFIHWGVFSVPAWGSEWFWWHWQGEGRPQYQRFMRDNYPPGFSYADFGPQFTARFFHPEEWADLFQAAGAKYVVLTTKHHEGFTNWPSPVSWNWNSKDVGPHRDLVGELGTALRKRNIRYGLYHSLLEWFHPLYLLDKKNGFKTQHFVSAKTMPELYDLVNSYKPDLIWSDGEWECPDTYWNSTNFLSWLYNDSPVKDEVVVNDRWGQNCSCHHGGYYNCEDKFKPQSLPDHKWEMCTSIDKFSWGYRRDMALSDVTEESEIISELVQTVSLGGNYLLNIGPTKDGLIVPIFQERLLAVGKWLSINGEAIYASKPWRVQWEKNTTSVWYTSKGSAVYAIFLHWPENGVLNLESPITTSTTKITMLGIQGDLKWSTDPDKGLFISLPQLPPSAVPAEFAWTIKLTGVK
UniProt Q13045: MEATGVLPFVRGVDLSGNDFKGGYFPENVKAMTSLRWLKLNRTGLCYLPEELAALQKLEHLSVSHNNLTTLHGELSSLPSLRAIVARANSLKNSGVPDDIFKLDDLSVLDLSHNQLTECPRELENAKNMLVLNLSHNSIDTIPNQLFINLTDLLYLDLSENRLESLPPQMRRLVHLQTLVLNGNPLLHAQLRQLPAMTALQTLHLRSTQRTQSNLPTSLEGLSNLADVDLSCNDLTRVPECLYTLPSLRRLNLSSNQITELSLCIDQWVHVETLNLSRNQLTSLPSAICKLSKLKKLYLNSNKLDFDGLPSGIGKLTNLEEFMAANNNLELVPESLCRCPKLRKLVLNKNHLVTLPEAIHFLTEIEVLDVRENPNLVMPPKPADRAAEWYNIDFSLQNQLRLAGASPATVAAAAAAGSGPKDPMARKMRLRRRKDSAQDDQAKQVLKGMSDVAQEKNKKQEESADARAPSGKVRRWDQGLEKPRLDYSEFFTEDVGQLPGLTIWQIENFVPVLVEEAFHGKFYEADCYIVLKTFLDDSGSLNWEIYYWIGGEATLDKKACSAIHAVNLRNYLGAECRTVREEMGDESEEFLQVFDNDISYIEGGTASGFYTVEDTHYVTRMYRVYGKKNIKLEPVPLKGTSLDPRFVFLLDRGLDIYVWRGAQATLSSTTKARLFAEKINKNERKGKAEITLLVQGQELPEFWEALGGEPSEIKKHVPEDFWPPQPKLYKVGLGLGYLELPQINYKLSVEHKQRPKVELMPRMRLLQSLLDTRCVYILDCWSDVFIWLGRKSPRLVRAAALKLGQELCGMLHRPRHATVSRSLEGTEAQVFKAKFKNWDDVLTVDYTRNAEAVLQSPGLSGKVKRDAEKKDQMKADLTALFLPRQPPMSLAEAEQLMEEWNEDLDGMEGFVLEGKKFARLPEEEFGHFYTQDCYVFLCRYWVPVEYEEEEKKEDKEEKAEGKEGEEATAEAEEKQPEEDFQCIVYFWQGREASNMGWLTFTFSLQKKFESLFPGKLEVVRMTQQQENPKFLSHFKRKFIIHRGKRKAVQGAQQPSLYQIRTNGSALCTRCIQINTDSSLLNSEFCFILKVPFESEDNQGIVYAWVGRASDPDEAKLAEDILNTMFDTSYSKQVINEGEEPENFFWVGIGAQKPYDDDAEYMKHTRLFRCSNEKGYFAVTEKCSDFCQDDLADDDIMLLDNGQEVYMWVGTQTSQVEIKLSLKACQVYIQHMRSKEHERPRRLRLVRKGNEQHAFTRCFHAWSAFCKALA
UniProt Q96CP2: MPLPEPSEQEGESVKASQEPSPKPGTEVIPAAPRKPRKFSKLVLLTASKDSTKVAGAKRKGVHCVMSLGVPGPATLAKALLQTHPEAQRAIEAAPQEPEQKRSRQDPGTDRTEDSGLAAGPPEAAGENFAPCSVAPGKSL
UniProt Q5T1M5: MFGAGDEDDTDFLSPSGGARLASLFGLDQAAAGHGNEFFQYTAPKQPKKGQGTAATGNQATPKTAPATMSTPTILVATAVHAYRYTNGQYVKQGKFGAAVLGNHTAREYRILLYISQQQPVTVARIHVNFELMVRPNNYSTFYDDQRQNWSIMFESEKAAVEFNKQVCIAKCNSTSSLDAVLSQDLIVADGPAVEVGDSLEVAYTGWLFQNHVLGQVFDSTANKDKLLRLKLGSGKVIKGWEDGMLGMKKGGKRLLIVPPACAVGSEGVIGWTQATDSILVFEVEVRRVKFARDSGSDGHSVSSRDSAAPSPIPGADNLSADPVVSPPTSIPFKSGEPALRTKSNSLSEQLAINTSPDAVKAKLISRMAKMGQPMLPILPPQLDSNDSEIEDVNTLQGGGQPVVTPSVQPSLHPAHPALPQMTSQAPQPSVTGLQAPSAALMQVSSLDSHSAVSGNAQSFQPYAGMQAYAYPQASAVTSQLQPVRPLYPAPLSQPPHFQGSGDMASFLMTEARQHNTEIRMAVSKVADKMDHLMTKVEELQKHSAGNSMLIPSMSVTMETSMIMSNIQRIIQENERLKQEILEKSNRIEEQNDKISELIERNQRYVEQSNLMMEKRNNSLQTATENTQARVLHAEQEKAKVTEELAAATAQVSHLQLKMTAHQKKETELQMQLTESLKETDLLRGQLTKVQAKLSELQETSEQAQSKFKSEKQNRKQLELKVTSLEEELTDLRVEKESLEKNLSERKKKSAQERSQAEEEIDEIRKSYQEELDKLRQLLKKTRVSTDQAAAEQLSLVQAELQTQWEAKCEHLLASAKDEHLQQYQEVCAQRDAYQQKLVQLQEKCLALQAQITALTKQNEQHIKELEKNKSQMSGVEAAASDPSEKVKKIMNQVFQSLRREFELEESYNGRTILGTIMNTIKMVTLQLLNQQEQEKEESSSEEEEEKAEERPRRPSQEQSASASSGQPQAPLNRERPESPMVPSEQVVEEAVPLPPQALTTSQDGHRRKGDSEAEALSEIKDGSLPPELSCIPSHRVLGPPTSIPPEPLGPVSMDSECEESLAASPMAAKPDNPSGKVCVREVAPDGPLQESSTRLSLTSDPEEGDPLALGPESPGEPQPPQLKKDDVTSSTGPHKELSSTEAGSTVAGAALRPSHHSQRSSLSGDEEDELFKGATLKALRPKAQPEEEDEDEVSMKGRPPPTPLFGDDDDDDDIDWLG
UniProt P11413, whole entry, looked up: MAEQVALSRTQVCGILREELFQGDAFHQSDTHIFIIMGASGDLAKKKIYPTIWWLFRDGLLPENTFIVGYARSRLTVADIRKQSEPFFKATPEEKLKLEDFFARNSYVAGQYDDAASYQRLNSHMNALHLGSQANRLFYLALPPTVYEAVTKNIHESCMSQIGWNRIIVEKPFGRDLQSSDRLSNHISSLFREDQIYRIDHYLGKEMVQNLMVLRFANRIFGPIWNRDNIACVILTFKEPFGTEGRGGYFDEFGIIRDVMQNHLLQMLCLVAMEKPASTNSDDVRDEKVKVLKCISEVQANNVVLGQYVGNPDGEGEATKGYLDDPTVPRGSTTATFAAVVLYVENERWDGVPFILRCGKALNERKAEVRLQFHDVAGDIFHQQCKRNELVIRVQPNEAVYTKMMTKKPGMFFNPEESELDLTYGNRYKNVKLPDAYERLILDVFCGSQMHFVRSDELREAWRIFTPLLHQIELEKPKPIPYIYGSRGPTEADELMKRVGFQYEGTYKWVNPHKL
UniProt P62942, whole entry, looked up: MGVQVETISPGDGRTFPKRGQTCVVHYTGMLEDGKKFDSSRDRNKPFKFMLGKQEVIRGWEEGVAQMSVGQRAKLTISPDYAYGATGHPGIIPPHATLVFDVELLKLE

Compound: Cc1cc(ccc1-c1ccccc1)C(=O)N1CCCN(CC1)C(=O)CCl [compound 10]
Assay: probe-labelled cysteine peptide fold change vs DMSO (competition) (log2 fold change); higher = less target engagement (more negative = stronger competition)
Settings: THP-1, incubation time: 4 h
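Further: competitive profiling in live THP-1 cells: cysteine peptides tagged with an iodoacetamide desthiobiotin (IA-DTB) probe, intensity after compound treatment relative to DMSO-treated cells.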

Target | probe-labelled cysteine peptide fold change (10 µM) | probe-labelled cysteine peptide fold change (50 µM)
FTSJ3_Q8IY81_293_VCCQDIR (UniProt Q8IY81) | 0.217 | -0.481
FIP1L1_Q6UN15_216_ITAEDCTMEVTPGAEIQDGR (UniProt Q6UN15) | -0.16 | 0.0481
FHL2_Q14192_92_EDQLLCTDCYSNEYSSK (UniProt Q14192) | 0.158 | -0.0868
FLNB_O75369_706_MDGTYACSYTPVK (UniProt O75369) | -0.0694 | -0.037
FLT3_P36888_35_CVLINHK (UniProt P36888) | -0.323 | 0.0612
FHOD1_Q9Y613_31_VQYLEDTDPFACANFPEPR (UniProt Q9Y613) | -0.0761 | 0.0496
FOCAD_Q5VW36_1243_LLVENSQQTSGFALALGNIVHGLSVCGHGK (UniProt Q5VW36) | 0.219 | -0.108
FXR1_P51114_211_HLECTK (UniProt P51114) | -0.141 | -0.767
FTSJ1_Q9UET6_295_EIRPQDCPISR (UniProt Q9UET6) | -0.22 | -0.263
FSCN1_Q16658_19_TANGTAEAVQIQFGLINCGNK (UniProt Q16658) | -0.0329 | -0.0765
FUCA1_P04066_296_FKPQSLPDHKWEMCTSIDK (UniProt P04066) | -0.0934 | -0.389
FKBPL_Q9UIM3_168_CLESMCQGEEAELQLPGHSGPPVR (UniProt Q9UIM3) | -0.0161 | -0.274
FLII_Q13045_982_QPEEDFQCIVYFWQGR (UniProt Q13045) | 0.288 | 0.568
FNDC3B_Q53EP0_558_SCPSEVLVCTTSPDRPGPPTRPLVK (UniProt Q53EP0) | -0.192 | -0.0216
FLYWCH2_Q96CP2_132_TEDSGLAAGPPEAAGENFAPCSVAPGK (UniProt Q96CP2) | -0.348 | 0.15
FN1_P02751_231_CNDQDTR (UniProt P02751) | -0.26 | -0.511
FLII_Q13045_933_LPEEEFGHFYTQDCYVFLCR (UniProt Q13045) | 0.172 | 0.145
FTO_Q9C0B1_294+308_ISWDIETPGLAIPLHQGDCYFMLDDLNATHQHCVLAGSQPR (UniProt Q9C0B1) | -0.278 | -0.585
FSCN1_Q16658_89_EVPGPDCR (UniProt Q16658) | 0.0368 | 0.13
FHL2_Q14192_254_CSLSLVGR (UniProt Q14192) | 0.0177 | -0.551
FLAD1_Q8NFF5_236_LHYGTDPCTGQPFRFPLVSVR (UniProt Q8NFF5) | -0.12 | -0.247

Target | probe-labelled cysteine peptide fold change (10 µM) | probe-labelled cysteine peptide fold change (50 µM)
FMR1_Q06787_584_VDCNNER (UniProt Q06787) | 0.0799 | 0.538
GAK_O14976_1142_ACTQPRPNYASNFSVIGAR (UniProt O14976) | -0.198 | -0.399
FSCN1_Q16658_80_YLAADKDGNVTCER (UniProt Q16658) | -0.138 | -0.591
FZD2_Q14332_201_YATLEHPFHCPR (UniProt Q14332) | -0.0512 | 0.183
FHL1_Q13642_10_FDCHYCR (UniProt Q13642) | 0.039 | -0.319
FLOT1_O75955_85_EMLAAACQMFLGK (UniProt O75955) | 0.0672 | 0.208
FKBP15_Q5T1M5_828_DEHLQQYQEVCAQR (UniProt Q5T1M5) | -0.134 | 0.169
GALK1_P51570_243_QCEEVAR (UniProt P51570) | -0.112 | -0.00408
GAB2_Q9UQC2_303_TPSNTLCR (UniProt Q9UQC2) | -0.249 | -0.252
G6PD_P11413_385_LQFHDVAGDIFHQQCK (UniProt P11413) | -0.0419 | -0.0589
FRY_Q5TBA9_120_GEDPQFDQVISSMSSLSEYCLPSILR (UniProt Q5TBA9) | 0.261 | 0.241
FKBP15_Q5T1M5_809_CEHLLASAK (UniProt Q5T1M5) | -0.189 | -0.135
FNDC3A_Q9Y2H6_560_SNPSEVVEFTTCPDKPGIPVKPSVK (UniProt Q9Y2H6) | -0.0701 | 0.0586
FUBP3_Q96I24_125_IQIASESSGIPERPCVLTGTPESIEQAK (UniProt Q96I24) | 0.287 | 0.314
FRY_Q5TBA9_869_HCPTALSYAWPYAFTR (UniProt Q5TBA9) | 0.195 | 0.221
FLNB_O75369_1952_DEPCLLK (UniProt O75369) | 0.0605 | 0.375
FLCN_Q8NFG4_454_STLHPVGCEDDQSLSK (UniProt Q8NFG4) | -0.00579 | -0.0219
FKBP1A_P62942_23_RGQTCVVHYTGMLEDGKK (UniProt P62942) | 0.182 | -0.301
FSCN1_Q16658_121_YFGGTEDRLSCFAQTVSPAEK (UniProt Q16658) | -0.481 | -0.838
G6PD_P11413_446_LILDVFCGSQMHFVR (UniProt P11413) | 0.0917 | 0.117
FKBP5_Q13451_107_GEICHLLCKPEYAYGSAGSLPK (UniProt Q13451) | 0.0721 | -0.164
